Measured data: PubChem BioAssay AID1259405 (NCATS, 2018)
Here is an unselected part of about 50,000 reagents tested. About 4,000 of them (8%) were called active. 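Mouse siRNA library applied to hamster cells; one well for each siRNA.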 A number with no mark means an inactive call. The numbers tell different reagents against one gene apart. Reagent sequences are not shown.

- Test: 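Silenced genes that increase secreted GFP made by CHO cells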 (primary screen)
- Cells: Chinese hamster CHO-K1 ovary cells with stable secreted eGFP expression
- Reagents: single siRNA against mouse genes, 0.8 pmol siRNA per well (2 µl of 400 nM stock)
- Duration: 3 days
- Measured: 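Per-well intracellular GFP measured by laser scanning cytometry, plus viability from ATP luminescence, each relative to plate median of non-targeting control wells, in %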
- Reading the numbers: GFP, % of control: higher = more GFP per well, higher productivity; viability (ATP), % of control: higher = more viable cells (more ATP)
- Active means: 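Called active when intracellular GFP, relative to negative control, is at or above 120%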

| target | reagent | GFP, % of control | viability (ATP), % of control |
| --- | --- | --- | --- |
| Pip4p1 (phosphatidylinositol-4,5-bisphosphate 4-phosphatase 1) | 1 | 95.9 | 85.2 |
| Pip4p1 (phosphatidylinositol-4,5-bisphosphate 4-phosphatase 1) | 2 | 112 | 108 |
| Pip4p1 (phosphatidylinositol-4,5-bisphosphate 4-phosphatase 1) | 3 | 188 (active) | 175 |
| Wac (WW domain containing adaptor with coiled-coil) | 1 | 62 | 70.5 |
| Wac (WW domain containing adaptor with coiled-coil) | 2 | 124 (active) | 49.9 |
| Wac (WW domain containing adaptor with coiled-coil) | 3 | 78.3 | 99.2 |
| Il17rb (interleukin 17 receptor B) | 1 | 74.5 | 70.7 |
| Il17rb (interleukin 17 receptor B) | 2 | 52.5 | 55 |
| Hnf4aos (hepatic nuclear factor 4 alpha, opposite strand) | 1 | 177 (active) | 154 |
| Hnf4aos (hepatic nuclear factor 4 alpha, opposite strand) | 2 | 75 | 79.8 |
| Hnf4aos (hepatic nuclear factor 4 alpha, opposite strand) | 3 | 104 | 67.2 |
| Pp2d1 (protein phosphatase 2C-like domain containing 1) | 1 | 114 | 70.3 |
| Pp2d1 (protein phosphatase 2C-like domain containing 1) | 2 | 77.3 | 73.5 |
| Pp2d1 (protein phosphatase 2C-like domain containing 1) | 3 | 62.2 | 101 |
| Zfhx3 (zinc finger homeobox 3) | 1 | 72.5 | 83.6 |
| Zfhx3 (zinc finger homeobox 3) | 2 | 102 | 86.5 |
| Zfhx3 (zinc finger homeobox 3) | 3 | 62.3 | 67.6 |
| Ugcg (UDP-glucose ceramide glucosyltransferase) | 1 | 82.5 | 66.4 |
| Ugcg (UDP-glucose ceramide glucosyltransferase) | 2 | 90.9 | 68.4 |
| Ugcg (UDP-glucose ceramide glucosyltransferase) | 3 | 97.4 | 95.5 |
| Fbxw21 (F-box and WD-40 domain protein 21) | 1 | 68.6 | 79.9 |
| Fbxw21 (F-box and WD-40 domain protein 21) | 2 | 82.8 | 87.5 |
| Fbxw21 (F-box and WD-40 domain protein 21) | 3 | 91.1 | 71.5 |
| Nubp1 (nucleotide binding protein 1) | 1 | 79.9 | 48.4 |
| Nubp1 (nucleotide binding protein 1) | 2 | 90 | 81.2 |
| Nubp1 (nucleotide binding protein 1) | 3 | 44.8 | 53.8 |
| Mab21l3 (mab-21-like 3) | 1 | 58.1 | 66.4 |
| Mab21l3 (mab-21-like 3) | 2 | 76.9 | 93.2 |
| Mab21l3 (mab-21-like 3) | 3 | 89.1 | 85.6 |
| Wdr18 (WD repeat domain 18) | 1 | 69.4 | 53.8 |
| Wdr18 (WD repeat domain 18) | 2 | 158 (active) | 62.6 |
| Wdr18 (WD repeat domain 18) | 3 | 79.8 | 75.9 |
| Asgr1 (asialoglycoprotein receptor 1) | 1 | 91.1 | 92.3 |
| Asgr1 (asialoglycoprotein receptor 1) | 2 | 80 | 74.9 |
| Asgr1 (asialoglycoprotein receptor 1) | 3 | 75.6 | 79.2 |
| Tnni1 (troponin I, skeletal, slow 1) | 1 | 58.6 | 54.5 |
| Tnni1 (troponin I, skeletal, slow 1) | 2 | 36.6 | 30.4 |
| Tnni1 (troponin I, skeletal, slow 1) | 3 | 79.6 | 55.9 |
| Prex1 | 1 | 74.1 | 65.2 |
| Prex1 | 2 | 101 | 110 |
| Prex1 | 3 | 58.5 | 36.1 |
| Zfp472 (zinc finger protein 472) | 1 | 69.6 | 57.3 |
| Zfp472 (zinc finger protein 472) | 2 | 70.9 | 73.8 |
| Zfp472 (zinc finger protein 472) | 3 | 96.6 | 87.1 |
| Pcdh20 (protocadherin 20) | 1 | 82.3 | 83.6 |
| Pcdh20 (protocadherin 20) | 2 | 46.4 | 43.5 |
| Lilrb4a | 1 | 76.5 | 45.4 |
| Lilrb4a | 2 | 149 (active) | 106 |
| Lilrb4a | 3 | 107 | 73.5 |

Continued (10 carried over from the part before).
| target | reagent | GFP, % of control | viability (ATP), % of control |
| --- | --- | --- | --- |
| Prex1 | 2 | 101 | 110 |
| Prex1 | 3 | 58.5 | 36.1 |
| Zfp472 (zinc finger protein 472) | 1 | 69.6 | 57.3 |
| Zfp472 (zinc finger protein 472) | 2 | 70.9 | 73.8 |
| Zfp472 (zinc finger protein 472) | 3 | 96.6 | 87.1 |
| Pcdh20 (protocadherin 20) | 1 | 82.3 | 83.6 |
| Pcdh20 (protocadherin 20) | 2 | 46.4 | 43.5 |
| Lilrb4a | 1 | 76.5 | 45.4 |
| Lilrb4a | 2 | 149 (active) | 106 |
| Lilrb4a | 3 | 107 | 73.5 |
| Rfxap (regulatory factor X-associated protein) | 1 | 62.9 | 72.9 |
| Rfxap (regulatory factor X-associated protein) | 2 | 60.4 | 80.5 |
| Rfxap (regulatory factor X-associated protein) | 3 | 84.2 | 102 |
| Zfp974 (zinc finger protein 974) | 1 | 62.1 | 66 |
| Zfp974 (zinc finger protein 974) | 2 | 53.6 | 73.7 |
| Zfp974 (zinc finger protein 974) | 3 | 88.9 | 85.8 |
| Or6p1 (olfactory receptor family 6 subfamily P member 1) | 1 | 66.4 | 63.2 |
| Or6p1 (olfactory receptor family 6 subfamily P member 1) | 2 | 74.9 | 85.3 |
| Or6p1 (olfactory receptor family 6 subfamily P member 1) | 3 | 69.6 | 70 |
| Amz2 (archaelysin family metallopeptidase 2) | 1 | 161 (active) | 120 |
| Amz2 (archaelysin family metallopeptidase 2) | 2 | 46.1 | 52.2 |
| Amz2 (archaelysin family metallopeptidase 2) | 3 | 84.6 | 77.3 |
| Or9s13 (olfactory receptor family 9 subfamily S member 13) | 1 | 66 | 91.8 |
| Or9s13 (olfactory receptor family 9 subfamily S member 13) | 2 | 76 | 52.6 |
| Or9s13 (olfactory receptor family 9 subfamily S member 13) | 3 | 81.3 | 83.3 |
| Prcp (prolylcarboxypeptidase (angiotensinase C)) | 1 | 152 (active) | 110 |
| Prcp (prolylcarboxypeptidase (angiotensinase C)) | 2 | 55 | 50.9 |
| Prcp (prolylcarboxypeptidase (angiotensinase C)) | 3 | 66.2 | 72.9 |
| Tnfrsf26 (tumor necrosis factor receptor superfamily, member 26) | 1 | 110 | 111 |
| Tnfrsf26 (tumor necrosis factor receptor superfamily, member 26) | 2 | 98.6 | 113 |
| Tnfrsf26 (tumor necrosis factor receptor superfamily, member 26) | 3 | 121 (active) | 104 |
| Erich2 (glutamate rich 2) | 1 | 47.8 | 59.3 |
| Erich2 (glutamate rich 2) | 2 | 64.2 | 86.8 |
| Erich2 (glutamate rich 2) | 3 | 106 | 112 |
| Or5p72 (olfactory receptor family 5 subfamily P member 72) | 1 | 96.3 | 67.8 |
| Or5p72 (olfactory receptor family 5 subfamily P member 72) | 2 | 88.5 | 94.1 |
| Or5p72 (olfactory receptor family 5 subfamily P member 72) | 3 | 82.1 | 50.5 |
| Dapk2 (death-associated protein kinase 2) | 1 | 140 (active) | 102 |
| Purg (purine-rich element binding protein G) | 1 | 45 | 53.7 |
| Purg (purine-rich element binding protein G) | 2 | 71.7 | 78.8 |
| Purg (purine-rich element binding protein G) | 3 | 45.7 | 55.3 |
| Mau2 | 1 | 59.9 | 78.6 |
| Mau2 | 2 | 108 | 90.9 |
| Mau2 | 3 | 122 (active) | 104 |
| Gfm1 (G elongation factor, mitochondrial 1) | 1 | 47.3 | 39.4 |
| Gfm1 (G elongation factor, mitochondrial 1) | 2 | 108 | 60.7 |
| Gfm1 (G elongation factor, mitochondrial 1) | 3 | 63.3 | 65.1 |
